{"source": "patent US20190134039A1", "about": "“ANTIVIRAL JAK INHIBITORS USEFUL IN TREATING OR PREVENTING RETROVIRAL AND OTHER VIRAL INFECTIONS” (EMORY UNIVERSITY, priority 2011, published 2019)", "key": {"HIV-1BaL": {"tested_on": "HIV-1BaL", "experiment": "microbe, parasite or virus in culture", "conditions": "Human immunodeficiency virus 1, Macrophage, read-out: Anti-HIV-1 EC50 in acutely infected MΦ", "experimental": "Macrophages were isolated as follows: Monocytes were isolated from buffy coats of HIV-1 negative, HBV/HCV-negative donors with density gradient centrifugation coupled with enrichment for CD14+ monocytes with Rosette Sep antibody cocktail (Stem Cell Technologies, Vancouver, British Columbia). Cells were seeded at a concentration of 1.0×10^6 cells/well for 1 hr at 37° C. and 5% CO2 to confer plastic adherence prior to repeated washes with 1×PBS. Macrophages were maintained in medium containing 100 U/ml macrophage colony-stimulating factor (m-CSF, R&D Systems, Minneapolis, Minn.), supplemented with 20% fetal calf serum (Atlanta Biologicals, Lawrenceville, Ga.) and 1% penicillin/streptomyocin (Invitrogen, Carlsbad, Calif.) for 7 days (37° C., 5% CO2) prior to testing.\nMacrophage infections: Macrophages were cultured as described above for 7 days. […] 4 hrs after infection, virus was removed and drug-containing medium was returned to the cultures. Supernatants were collected on day 7 post-infection and HIV-1 p24 was quantified via ELISA (Zeptometrix Corporation, Buffalo, N.Y.). EC50 analysis was performed using CalcuSyn software (BioSoft Corporation, Cambridge, UK)."}, "HIV-1LAI": {"tested_on": "HIV-1LAI", "experiment": "microbe, parasite or virus in culture", "conditions": "Human immunodeficiency virus 1, PBMC, read-out: Anti-HIV-1 EC50 in acutely infected PBM cells", "description": "PBM cells were isolated as follows: Lymphocytes were isolated from buffy coats derived from healthy donors obtained from Life South Laboratories (Dunwoody, Ga.). Activated lymphocytes were maintained for 72 hrs in medium that was supplemented with […] phytohemagglutinin (PHA) (Cape Cod associates, East Falmouth, Mass.). Media was comprised of RPMI media supplemented with 20% fetal calf serum, 1% penicillin/streptomyocin and 2% L-glutamine (Sigma Aldrich, San Jose, Calif.).\nPBM cell infections: Testing was performed in duplicate with at least 3 independent assays. Cells were incubated in RPMI medium (HyClone, Logan, Utah) containing HR-IL2 (26.5 units/ml) and 20% fetal calf serum. Infections were performed by adding HIV-1LA1 followed by a further incubation at 37° C., 5% CO2, 1 hr prior to addition of drugs. Assays were performed in 24 well plates (BD Biosciences, Franklin Lakes, N.J.). One ml of supernatant was collected after 5 days in culture and then centrifuged at 12,000 rpm for 2 hr at 4° C. in a Jouan Br43i (Thermo Electron Corp., Marietta, Ohio). The product of the RT assay was quantified using a Packard harvester and direct beta counter and the data were analyzed as previously described (Schinazi et al, 1990)."}, "[1]": {"tested_on": "acute infection in rhesus macaque lymphocytes", "experiment": "cells", "conditions": "Macaca mulatta, Lymphocyte, read-out: Acute infection in rhesus macaque lymphocytes EC50", "description": "(§1) The data (Shown in Table 5 below) are mean and standard deviations from at least three independent experiments."}, "[2]": {"tested_on": "acute infection in rhesus macaque macrophages", "experiment": "cells", "conditions": "read-out: Acute infection in rhesus macaque macrophages EC50", "description": "as §1"}, "[3]": {"tested_on": "HIV-1 containing A62V/V75I/F77L/F116Y/Q151M", "experiment": "microbe, parasite or virus in culture", "assay_type": "cell-based"}, "PBM cells": {"tested_on": "PBM cells", "experiment": "cells", "conditions": "Homo sapiens, PBMC, read-out: IC50 in PBM cells *Propidium Iodide assay"}, "wild-type HIV-1xxLAI": {"tested_on": "wild-type HIV-1xxLAI", "experiment": "Antiviral potency in primary human lymphocytes, wild type", "assay_type": "cell-based", "conditions": "Human immunodeficiency virus 1, Lymphocyte"}, "PHA + IL-2 PBM cells": {"tested_on": "PHA + IL-2 PBM cells", "experiment": "cells", "conditions": "Homo sapiens, PBMC, read-out: IC50 in PHA + IL-2 PBM cells *MTT Assay"}, "[4]": {"tested_on": "HIV-1 containing 4xAZT (D67N/K70R/T215Y/K219Q)", "experiment": "microbe, parasite or virus in culture", "assay_type": "cell-based"}, "Vero cells": {"tested_on": "Vero cells", "experiment": "cells", "conditions": "Chlorocebus sabaeus, read-out: IC50 in Vero cells *MTT Assay"}, "PHA stimulated PBM cells": {"tested_on": "PHA stimulated PBM cells", "experiment": "cells", "conditions": "Homo sapiens, PBMC, read-out: IC50 in PHA stimulated PBM cells *MTT Assay"}, "HIV-1 containing M184V": {"tested_on": "HIV-1 containing M184V", "experiment": "microbe, parasite or virus in culture", "assay_type": "cell-based"}, "Mφ": {"tested_on": "Mφ", "experiment": "cells", "conditions": "Homo sapiens, read-out: IC50 in Mφ *MTT Assay"}, "CEM cells": {"tested_on": "CEM cells", "experiment": "cells", "conditions": "Homo sapiens, CCRF-CEM, read-out: IC50 in CEM cells *MTT Assay"}, "HIV-1 containing L74V": {"tested_on": "HIV-1 containing L74V", "experiment": "microbe, parasite or virus in culture", "assay_type": "cell-based"}, "HIV-1 containing K65R": {"tested_on": "HIV-1 containing K65R", "experiment": "microbe, parasite or virus in culture", "assay_type": "cell-based"}, "pSTAT5": {"tested_on": "pSTAT5", "experiment": "cells"}, "pSTAT1": {"tested_on": "pSTAT1", "experiment": "cells"}, "HIV-2": {"tested_on": "HIV-2", "experiment": "microbe, parasite or virus in culture", "conditions": "Human immunodeficiency virus 2, PBMC, read-out: Anti-HIV-2 EC50 in acutely infected PBM cells"}, "pSTAT3": {"tested_on": "pSTAT3", "experiment": "cells", "conditions": "read-out: EC50 pSTAT3"}, "[5]": {"conditions": "Human immunodeficiency virus 1, Lymphocyte"}}, "note": "Like-named read-outs stand apart in the source and are kept apart here.", "data": [{"smiles": "C[C@@H]1CCN(C(=O)CC#N)C[C@@H]1N(C)c1ncnc2[nH]ccc12", "note": "[Tofacitinib, 3-{(3R,4R)-4 methyl-3-[methyl-(7H-pyrrolo[2,3-d]pyrimidin-4-yl)-amino]-piperidin-1-yl}-3-oxo-propionitrile]", "values": [{"measurement": "EC50", "setting": "HIV-1BaL", "result": "200 ± 80", "unit": "nM"}, {"measurement": "EC50", "setting": "HIV-1LAI", "result": "800 ± 300", "unit": "nM"}, {"measurement": "EC50", "setting": "[1]", "result": "300 ± 100", "unit": "nM"}, {"measurement": "EC50", "setting": "[2]; Macaca mulatta, Macrophage", "result": "~400", "unit": "nM"}, {"measurement": "EC50", "setting": "[2]", "result": "300 ± 200", "unit": "nM"}, {"measurement": "FI50 (ratio of EC50 against mutant virus:EC50 against wild-type xxLAI)", "setting": "[3]; A62V/V75I/F77L/F116Y/Q151M", "result": 0.1}, {"measurement": "FI90 (ratio of EC90 against mutant virus:EC90 against wild-type xxLAI)", "setting": "[3]; A62V/V75I/F77L/F116Y/Q151M", "result": 0.3}, {"measurement": "EC50", "setting": "[3]; [5]", "result": "200 ± 200", "unit": "nM"}, {"measurement": "IC50", "setting": "PBM cells", "result": "> 50", "unit": "µM"}, {"measurement": "EC50", "setting": "wild-type HIV-1xxLAI", "result": "2600 ± 1300", "unit": "nM"}, {"measurement": "CC50", "setting": "PHA + IL-2 PBM cells", "result": "1300 ± 900", "unit": "nM"}, {"measurement": "FI50 (ratio of EC50 against mutant virus:EC50 against wild-type xxLAI)", "setting": "[4]; 4xAZT (D67N/K70R/T215Y/K219Q)", "result": 0.1}, {"measurement": "FI90 (ratio of EC90 against mutant virus:EC90 against wild-type xxLAI)", "setting": "[4]; 4xAZT (D67N/K70R/T215Y/K219Q)", "result": 0.61}, {"measurement": "EC50", "setting": "[4]; [5]", "result": "300 ± 200", "unit": "nM"}, {"measurement": "IC50", "setting": "Vero cells", "result": "> 100", "unit": "µM"}, {"measurement": "IC50", "setting": "PHA stimulated PBM cells", "result": "6.3 ± 1.8", "unit": "µM"}, {"measurement": "EC50", "setting": "HIV-1 containing M184V; [5]", "result": "1600 ± 700", "unit": "nM"}, {"measurement": "FI50 (ratio of EC50 against mutant virus:EC50 against wild-type xxLAI)", "setting": "HIV-1 containing M184V; M184V", "result": 0.6}, {"measurement": "FI90 (ratio of EC90 against mutant virus:EC90 against wild-type xxLAI)", "setting": "HIV-1 containing M184V; M184V", "result": 1.0}, {"measurement": "IC50", "setting": "Mφ", "result": 49.2, "unit": "µM"}, {"measurement": "IC50", "setting": "CEM cells", "result": "> 100", "unit": "µM"}, {"measurement": "EC50", "setting": "HIV-1 containing L74V; [5]", "result": "900 ± 1000", "unit": "nM"}, {"measurement": "FI50 (ratio of EC50 against mutant virus:EC50 against wild-type xxLAI)", "setting": "HIV-1 containing L74V; L74V", "result": 0.4}, {"measurement": "FI90 (ratio of EC90 against mutant virus:EC90 against wild-type xxLAI)", "setting": "HIV-1 containing L74V; L74V", "result": 1.7}, {"measurement": "EC50", "setting": "HIV-1 containing K65R; [5]", "result": "1800 ± 800", "unit": "nM"}, {"measurement": "FI50 (ratio of EC50 against mutant virus:EC50 against wild-type xxLAI)", "setting": "HIV-1 containing K65R; K65R", "result": 0.7}, {"measurement": "FI90 (ratio of EC90 against mutant virus:EC90 against wild-type xxLAI)", "setting": "HIV-1 containing K65R; K65R", "result": 2.9}, {"measurement": "EC50", "setting": "pSTAT5; read-out: EC50 pSTAT5", "result": "< 10", "unit": "nM"}, {"measurement": "EC90", "setting": "pSTAT5; read-out: EC90 pSTAT5", "result": 10, "unit": "nM"}, {"measurement": "EC50", "setting": "pSTAT1; read-out: EC50 pSTAT1", "result": "< 10", "unit": "nM"}, {"measurement": "EC90", "setting": "pSTAT1; read-out: EC90 pSTAT1", "result": 10, "unit": "nM"}, {"measurement": "EC50", "setting": "HIV-2", "result": "70 ± 6", "unit": "nM"}, {"measurement": "EC50", "setting": "pSTAT3", "result": 20, "unit": "nM"}]}]}
